Measured values reported in publication PMC4755027.
Results are given in words; binding and its absence hold for the method and conditions named. Binding seen in cells or lysates may run through a third protein. Some entries that bind do so weakly or less than the wild type.

Protein sequences, listed by entry. Tags and fused reporters are not part of them. Residues count along the entry.
UniProt Q9QUN7, residues 25-784: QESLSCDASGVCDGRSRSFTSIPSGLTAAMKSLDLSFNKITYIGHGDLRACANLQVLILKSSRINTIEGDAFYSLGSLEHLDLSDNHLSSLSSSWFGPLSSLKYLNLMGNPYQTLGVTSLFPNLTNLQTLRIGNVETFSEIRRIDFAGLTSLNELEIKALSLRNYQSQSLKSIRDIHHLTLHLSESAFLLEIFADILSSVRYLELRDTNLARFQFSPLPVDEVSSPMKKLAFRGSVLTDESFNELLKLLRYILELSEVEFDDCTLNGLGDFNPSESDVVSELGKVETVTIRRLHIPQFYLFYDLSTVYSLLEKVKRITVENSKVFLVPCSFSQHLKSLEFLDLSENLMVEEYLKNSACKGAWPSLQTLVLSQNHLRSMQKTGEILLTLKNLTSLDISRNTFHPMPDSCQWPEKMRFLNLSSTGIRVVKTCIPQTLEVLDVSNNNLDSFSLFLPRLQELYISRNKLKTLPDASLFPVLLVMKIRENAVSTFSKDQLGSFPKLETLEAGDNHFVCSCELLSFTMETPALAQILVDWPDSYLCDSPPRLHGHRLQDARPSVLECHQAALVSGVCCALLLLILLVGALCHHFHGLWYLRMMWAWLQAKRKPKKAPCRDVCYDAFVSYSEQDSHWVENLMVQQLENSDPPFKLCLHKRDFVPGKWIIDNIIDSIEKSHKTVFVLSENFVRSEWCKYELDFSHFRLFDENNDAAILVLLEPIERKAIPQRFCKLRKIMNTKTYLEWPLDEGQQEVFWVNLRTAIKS
UniProt P07356: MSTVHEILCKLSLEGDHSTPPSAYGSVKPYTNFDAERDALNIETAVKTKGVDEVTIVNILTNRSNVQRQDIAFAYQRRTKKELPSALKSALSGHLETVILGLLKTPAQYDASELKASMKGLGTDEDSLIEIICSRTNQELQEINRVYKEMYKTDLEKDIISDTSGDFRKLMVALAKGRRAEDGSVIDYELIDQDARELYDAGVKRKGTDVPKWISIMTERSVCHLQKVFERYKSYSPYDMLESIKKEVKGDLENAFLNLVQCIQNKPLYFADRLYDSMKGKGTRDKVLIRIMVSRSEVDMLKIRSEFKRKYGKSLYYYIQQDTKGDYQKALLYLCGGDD

Target: Toll-like receptor 2 (murine, in GL261 lysate) (mouse (endogenous in GL261)) (UniProt Q9QUN7)
Experiment: co-IP; GL261 lysate at 2 mg/ml (RIPA buffer), primary Ab (anti-TLR2 clone T2.5, anti-ANXA2 clone 5) overnight at 4 °C, protein A/G agarose, immunoblot

- binding: binds
Substance: Annexin A2 (murine, in GL261 lysate) (from UniProt P07356 1-339)
